# Source: the supplement of paper PMC5355238
# Where a name gives a salt, the structure may show the parent alone. The list shows a part of the results. Most values lie at the level of the controls, where differences are scatter.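 Using flow cytometry, the assay measures the median γH2AX antibody signal in S-phase Reh cells (a human leukemia line). Each score is the number of standard deviations from the median difference of paired plate sets. Candidate hits scored above 2.5; compounds scoring below -2 lowered MK1775-induced damage.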
# System: Reh
# Assay: Z' of S-phase gammaH2AX difference (drug + MK1775 minus drug alone) (Z-score); higher = stronger synergistic S-phase DNA damage with MK1775
# Details: MK1775 concentration 400 nM; first compound 10 µM; 4 h
row,SMILES,Z' of S-phase gammaH2AX difference (Z-score)
1,COCCc1ccc(OCC(O)CNC(C)C)cc1 (stereo not drawn) [(?)-Metoprolol (+)-tartrate] + C=CCn1c(=O)c2cnc(Nc3ccc(N4CCN(C)CC4)cc3)nc2n1-c1cccc(C(C)(C)O)n1 [MK1775],inactive: 1.15
2,CC(C)Cc1ccc(C(C)C(=O)O)cc1 (stereo not given) [(?)-Ibuprofen] + C=CCn1c(=O)c2cnc(Nc3ccc(N4CCN(C)CC4)cc3)nc2n1-c1cccc(C(C)(C)O)n1 [MK1775],inactive: 0.216
3,COC(=O)C(N)Cc1ccc(Cl)cc1 (racemic) [DL-p-Chlorophenylalanine methyl ester hydrochloride] + C=CCn1c(=O)c2cnc(Nc3ccc(N4CCN(C)CC4)cc3)nc2n1-c1cccc(C(C)(C)O)n1 [MK1775],inactive: -0.481
4,O=c1c(O)c(-c2ccc(O)c(O)c2)oc2cc(O)cc(O)c12 [Quercetin (Sophoretin)] + C=CCn1c(=O)c2cnc(Nc3ccc(N4CCN(C)CC4)cc3)nc2n1-c1cccc(C(C)(C)O)n1 [MK1775],inactive: -0.357
5,O=c1c(O)c(-c2ccc(O)c(O)c2)oc2cc(O)cc(O)c12 [Quercetin dihydrate] + C=CCn1c(=O)c2cnc(Nc3ccc(N4CCN(C)CC4)cc3)nc2n1-c1cccc(C(C)(C)O)n1 [MK1775],inactive: -0.611
6,O=C(O)C1(C(=O)O)CCC1.[NH2-].[NH2-].[Pt+2] [Carboplatin] + C=CCn1c(=O)c2cnc(Nc3ccc(N4CCN(C)CC4)cc3)nc2n1-c1cccc(C(C)(C)O)n1 [MK1775],inactive: -0.0237
7,"N[C@H](C(=O)O)[C@H]1C[C@@H]1C(=O)O [(2S,1'S,2'S)-2-(carboxycyclopropyl)glycine] + C=CCn1c(=O)c2cnc(Nc3ccc(N4CCN(C)CC4)cc3)nc2n1-c1cccc(C(C)(C)O)n1 [MK1775]",inactive: -0.304
8,CC(C)(C)NCC(O)c1cc(O)cc(O)c1 (stereo not given) [Terbutaline hemisulfate] + C=CCn1c(=O)c2cnc(Nc3ccc(N4CCN(C)CC4)cc3)nc2n1-c1cccc(C(C)(C)O)n1 [MK1775],inactive: -0.136
9,CCOC(=O)[N-]c1c[n+](N2CCOCC2)no1 [Molsidomine] + C=CCn1c(=O)c2cnc(Nc3ccc(N4CCN(C)CC4)cc3)nc2n1-c1cccc(C(C)(C)O)n1 [MK1775],inactive: 1.41
10,CC[N+](CC)(CC)CCOc1cccc(OCC[N+](CC)(CC)CC)c1OCC[N+](CC)(CC)CC [Gallamine triethiodide] + C=CCn1c(=O)c2cnc(Nc3ccc(N4CCN(C)CC4)cc3)nc2n1-c1cccc(C(C)(C)O)n1 [MK1775],inactive: -0.211
11,CCN(CCCOc1ccc2c(Nc3cc(CC(=O)Nc4cccc(F)c4)[nH]n3)ncnc2c1)CCOP(=O)(O)O [Barasertib (AZD1152-HQPA)] + C=CCn1c(=O)c2cnc(Nc3ccc(N4CCN(C)CC4)cc3)nc2n1-c1cccc(C(C)(C)O)n1 [MK1775],inactive: 0.22
12,O=c1[nH]nc(Sc2ncc([N+](=O)[O-])s2)n1-c1ccc2c(c1)OCCO2 + C=CCn1c(=O)c2cnc(Nc3ccc(N4CCN(C)CC4)cc3)nc2n1-c1cccc(C(C)(C)O)n1 [MK1775],inactive: 1.23
13,CC/C(=C(\c1ccccc1)c1ccc(OCCN(C)C)cc1)c1ccccc1 [Tamoxifen citrate] + C=CCn1c(=O)c2cnc(Nc3ccc(N4CCN(C)CC4)cc3)nc2n1-c1cccc(C(C)(C)O)n1 [MK1775],inactive: -0.606
14,CC/C(=C(\c1ccccc1)c1ccc(OCCN(C)C)cc1)c1ccccc1 [Tamoxifen Citrate (Nolvadex)] + C=CCn1c(=O)c2cnc(Nc3ccc(N4CCN(C)CC4)cc3)nc2n1-c1cccc(C(C)(C)O)n1 [MK1775],inactive: 0.191
15,O=C(O)c1cccnc1C(=O)O [Quinolinic acid] + C=CCn1c(=O)c2cnc(Nc3ccc(N4CCN(C)CC4)cc3)nc2n1-c1cccc(C(C)(C)O)n1 [MK1775],inactive: -0.34
16,CCN1CCC[C@H]1CNC(=O)c1c(O)c(Cl)cc(Cl)c1OC [S(+)-Raclopride L-tartrate] + C=CCn1c(=O)c2cnc(Nc3ccc(N4CCN(C)CC4)cc3)nc2n1-c1cccc(C(C)(C)O)n1 [MK1775],inactive: -0.244
17,CN1CCC[C@@H]1CCO[C@](C)(c1ccccc1)c1ccc(Cl)cc1 [Clemastine fumarate] + C=CCn1c(=O)c2cnc(Nc3ccc(N4CCN(C)CC4)cc3)nc2n1-c1cccc(C(C)(C)O)n1 [MK1775],inactive: 0.571
18,CN1CCN(c2nc(C3=C(c4c[nH]c5ccccc45)C(=O)NC3=O)c3ccccc3n2)CC1 [Sotrastaurin (AEB071)] + C=CCn1c(=O)c2cnc(Nc3ccc(N4CCN(C)CC4)cc3)nc2n1-c1cccc(C(C)(C)O)n1 [MK1775],inactive: -0.498

# 2 entries from above in another layout:
row	SMILES	Z' of S-phase gammaH2AX difference (Z-score)
10	CC[N+](CC)(CC)CCOc1cccc(OCC[N+](CC)(CC)CC)c1OCC[N+](CC)(CC)CC [Gallamine triethiodide] + C=CCn1c(=O)c2cnc(Nc3ccc(N4CCN(C)CC4)cc3)nc2n1-c1cccc(C(C)(C)O)n1 [MK1775]	inactive: -0.211
13	CC/C(=C(\c1ccccc1)c1ccc(OCCN(C)C)cc1)c1ccccc1 [Tamoxifen citrate] + C=CCn1c(=O)c2cnc(Nc3ccc(N4CCN(C)CC4)cc3)nc2n1-c1cccc(C(C)(C)O)n1 [MK1775]	inactive: -0.606

# (listing goes on)

row,SMILES,Z' of S-phase gammaH2AX difference (Z-score)
1,COc1cc2ncnc(Nc3ccc(F)c(Cl)c3)c2cc1OCCCN1CCOCC1 [Gefitinib (Iressa)] + C=CCn1c(=O)c2cnc(Nc3ccc(N4CCN(C)CC4)cc3)nc2n1-c1cccc(C(C)(C)O)n1 [MK1775],inactive: 0.16
2,Brc1c(NC2=NCCN2)ccc2nccnc12 + C=CCn1c(=O)c2cnc(Nc3ccc(N4CCN(C)CC4)cc3)nc2n1-c1cccc(C(C)(C)O)n1 [MK1775],inactive: 0.751
3,CN(C)CCOC(=O)COc1ccc(Cl)cc1 [Centrophenoxine hydrochloride] + C=CCn1c(=O)c2cnc(Nc3ccc(N4CCN(C)CC4)cc3)nc2n1-c1cccc(C(C)(C)O)n1 [MK1775],inactive: 0.197
4,N#C/C(=C\c1ccc(O)c(O)c1)C(=O)NCCCNC(=O)/C(C#N)=C/c1ccc(O)c(O)c1 [Tyrphostin AG 537] + C=CCn1c(=O)c2cnc(Nc3ccc(N4CCN(C)CC4)cc3)nc2n1-c1cccc(C(C)(C)O)n1 [MK1775],inactive: 0.028
5,N=C(N)N/N=C/c1c(Cl)cccc1Cl [Guanabenz acetate] + C=CCn1c(=O)c2cnc(Nc3ccc(N4CCN(C)CC4)cc3)nc2n1-c1cccc(C(C)(C)O)n1 [MK1775],inactive: -0.867
6,OC(CCN1CCCCC1)(c1ccccc1)C1CCCCC1 (stereo not given) [Trihexyphenidyl hydrochloride] + C=CCn1c(=O)c2cnc(Nc3ccc(N4CCN(C)CC4)cc3)nc2n1-c1cccc(C(C)(C)O)n1 [MK1775],inactive: -0.14
7,CN(CCOc1ccc(CC2SC(=O)NC2=O)cc1)c1ccccn1 (stereo not given) [Rosiglitazone (Avandia)] + C=CCn1c(=O)c2cnc(Nc3ccc(N4CCN(C)CC4)cc3)nc2n1-c1cccc(C(C)(C)O)n1 [MK1775],inactive: 0.0939
8,Fc1cc(-c2cccc3ncc(-c4cnn(C5CCNCC5)c4)nc23)cc(F)c1CN1CCOCC1 + C=CCn1c(=O)c2cnc(Nc3ccc(N4CCN(C)CC4)cc3)nc2n1-c1cccc(C(C)(C)O)n1 [MK1775],inactive: -0.471
9,O=C(O)/C(=C\c1c(C(=O)O)[nH]c2cc(Cl)cc(Cl)c12)c1ccccc1 + C=CCn1c(=O)c2cnc(Nc3ccc(N4CCN(C)CC4)cc3)nc2n1-c1cccc(C(C)(C)O)n1 [MK1775],inactive: 1.28
10,CN(C)[C@@H]1C(O)=C(C(N)=O)C(=O)[C@@]2(O)C(O)=C3C(=O)c4c(O)ccc(Cl)c4[C@@H](O)[C@H]3C[C@@H]12 [Demeclocycline hydrochloride] + C=CCn1c(=O)c2cnc(Nc3ccc(N4CCN(C)CC4)cc3)nc2n1-c1cccc(C(C)(C)O)n1 [MK1775],inactive: 0.362
11,N[C@@H](C(=O)N[C@@H]1C(=O)N2C(C(=O)O)=C(Cl)CS[C@H]12)c1ccccc1 [Cefaclor] + C=CCn1c(=O)c2cnc(Nc3ccc(N4CCN(C)CC4)cc3)nc2n1-c1cccc(C(C)(C)O)n1 [MK1775],inactive: 1.18
12,CC(C)NC[C@H](O)c1ccc(O)c(O)c1 [R(-)-Isoproterenol (+)-bitartrate] + C=CCn1c(=O)c2cnc(Nc3ccc(N4CCN(C)CC4)cc3)nc2n1-c1cccc(C(C)(C)O)n1 [MK1775],inactive: 1.29
13,CC[C@@H]1/C=C(\C)C[C@H](C)C[C@H](OC)[C@H]2O[C@@](O)(C(=O)C(=O)N3CCCC[C@H]3C(=O)O[C@H](/C(C)=C/[C@@H]3CC[C@H](Cl)[C@H](OC)C3)[C@H](C)[C@@H](O)CC1=O)[C@H](C)C[C@@H]2OC [Pimecrolimus] + C=CCn1c(=O)c2cnc(Nc3ccc(N4CCN(C)CC4)cc3)nc2n1-c1cccc(C(C)(C)O)n1 [MK1775],inactive: -0.0968
14,O=C(O)c1cc(O)c2ccc(Cl)cc2n1 [7-Chlorokynurenic acid] + C=CCn1c(=O)c2cnc(Nc3ccc(N4CCN(C)CC4)cc3)nc2n1-c1cccc(C(C)(C)O)n1 [MK1775],inactive: 0.0234
15,NCCS(=O)O [Hypotaurine] + C=CCn1c(=O)c2cnc(Nc3ccc(N4CCN(C)CC4)cc3)nc2n1-c1cccc(C(C)(C)O)n1 [MK1775],inactive: 1.07
16,NOCC(=O)O [O-(Carboxymethyl)hydroxylamine hemihydrochloride] + C=CCn1c(=O)c2cnc(Nc3ccc(N4CCN(C)CC4)cc3)nc2n1-c1cccc(C(C)(C)O)n1 [MK1775],inactive: 0.277
17,C=CC(=O)N1CCC[C@@H](n2nc(-c3ccc(Oc4ccccc4)cc3)c3c(N)ncnc32)C1 + C=CCn1c(=O)c2cnc(Nc3ccc(N4CCN(C)CC4)cc3)nc2n1-c1cccc(C(C)(C)O)n1 [MK1775],inactive: -0.588
